From patent publication US20230087125A1 (Memorial Sloan Kettering, published 2023)
Results are given in words; binding and its absence hold for the method and conditions named. Some binding calls cover weakened binding; strength is not graded here.

Protein sequences, listed by entry. Tags and fused reporters are not part of them. Lines headed by an entry give the natural chain unless they say otherwise; changes in a name come on top.
UniProt P16871: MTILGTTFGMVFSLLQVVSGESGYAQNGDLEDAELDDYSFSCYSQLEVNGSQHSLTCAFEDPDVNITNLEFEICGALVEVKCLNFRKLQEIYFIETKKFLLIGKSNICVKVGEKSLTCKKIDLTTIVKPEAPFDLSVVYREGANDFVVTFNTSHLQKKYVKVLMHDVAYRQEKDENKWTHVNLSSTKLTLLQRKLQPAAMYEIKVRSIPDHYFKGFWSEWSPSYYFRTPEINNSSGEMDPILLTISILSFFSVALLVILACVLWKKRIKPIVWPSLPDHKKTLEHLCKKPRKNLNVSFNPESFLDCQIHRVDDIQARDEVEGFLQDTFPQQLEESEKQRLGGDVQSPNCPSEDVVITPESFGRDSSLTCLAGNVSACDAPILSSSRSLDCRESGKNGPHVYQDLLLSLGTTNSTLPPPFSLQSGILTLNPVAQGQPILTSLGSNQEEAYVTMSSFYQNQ

Columns and labels:
[1] = target: human IL-7R (CD127) on cells (human) (UniProt P16871); assay: flow cytometry on IL-7R expressing cells
[2] = target: human IL-7R (CD127) on cells (human) (UniProt P16871); assay: flow cytometry on H358 cells and A549-7R cells
[3] = target: human IL-7R (CD127) on cells (human) (UniProt P16871); assay: flow cytometry on H358 cells and IL-7R overexpressing A549 cells

Measured: binding

B1: OSE703 humanized anti-IL-7R monoclonal antibody (antibody, IgG1, V domains shown)
VH: AVQLVESGGGLVQPGGSLKITCAASGFTFTNAAMYWVRQAPGKGLEWVARIRTKANNYATYYADSVKGRFTISRDDSKSTVYLQMDSVKTEDTATYYCIVVVLTTTRDYFDYWGQGVLVTVSS
VL: DIVLTQSPSSLPVTPGEPASISCRSSQSLLTVKGITSLYWFLQKPGQSPKLLIYRMSNRDSGVPDRFSGSGSETDFTLKISRVEAEDVGTYYCAQFLEYPHTFGAGTKLELK
binds: [1] | [2] | [3]
